Laboratory results reported in article PMC5472178.
Results are given in words; binding and its absence hold for the method and conditions named. In cells and extracts the contact can be indirect. A result given as binding can be weak or reduced; the word gives no strength. Tags and fused reporters may be left off the sequences shown.

Molecular target: T1, Flag-tagged ZNRF1 (zinc and ring finger 1), full length (mouse) (UniProt Q91V17)
T1 sequence: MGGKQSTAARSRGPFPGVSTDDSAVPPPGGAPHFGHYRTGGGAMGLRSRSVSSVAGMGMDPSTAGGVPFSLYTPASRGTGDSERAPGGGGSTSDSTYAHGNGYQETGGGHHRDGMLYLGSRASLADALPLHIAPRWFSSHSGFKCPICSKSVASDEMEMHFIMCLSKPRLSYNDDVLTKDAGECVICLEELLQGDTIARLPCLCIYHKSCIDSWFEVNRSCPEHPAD
Assay: co-IP; HEK293T cells co-transfected with V5-tagged CAV1 and Flag-tagged ZNRF1 (full length or truncated); lysis in 150 mM NaCl, 20 mM Tris-HCl pH 7.4, 0.5% Triton X-100; immunoprecipitation at 4 °C and immunoblotting

In the case of “CAV1(ΔNC), V5-tagged (mouse) (domain or fragment)”, the binding is reported as “binds”.
